The supplement of paper PMC10032668
± gives the standard deviation of the averaged measurements. This is one part of the list. The list holds hits alone, and they repeat only in part.

Sequences of proteins named here, by UniProt entry; tags and fusion partners are left off.
EP300, Q09472, UniProt Q09472, whole entry: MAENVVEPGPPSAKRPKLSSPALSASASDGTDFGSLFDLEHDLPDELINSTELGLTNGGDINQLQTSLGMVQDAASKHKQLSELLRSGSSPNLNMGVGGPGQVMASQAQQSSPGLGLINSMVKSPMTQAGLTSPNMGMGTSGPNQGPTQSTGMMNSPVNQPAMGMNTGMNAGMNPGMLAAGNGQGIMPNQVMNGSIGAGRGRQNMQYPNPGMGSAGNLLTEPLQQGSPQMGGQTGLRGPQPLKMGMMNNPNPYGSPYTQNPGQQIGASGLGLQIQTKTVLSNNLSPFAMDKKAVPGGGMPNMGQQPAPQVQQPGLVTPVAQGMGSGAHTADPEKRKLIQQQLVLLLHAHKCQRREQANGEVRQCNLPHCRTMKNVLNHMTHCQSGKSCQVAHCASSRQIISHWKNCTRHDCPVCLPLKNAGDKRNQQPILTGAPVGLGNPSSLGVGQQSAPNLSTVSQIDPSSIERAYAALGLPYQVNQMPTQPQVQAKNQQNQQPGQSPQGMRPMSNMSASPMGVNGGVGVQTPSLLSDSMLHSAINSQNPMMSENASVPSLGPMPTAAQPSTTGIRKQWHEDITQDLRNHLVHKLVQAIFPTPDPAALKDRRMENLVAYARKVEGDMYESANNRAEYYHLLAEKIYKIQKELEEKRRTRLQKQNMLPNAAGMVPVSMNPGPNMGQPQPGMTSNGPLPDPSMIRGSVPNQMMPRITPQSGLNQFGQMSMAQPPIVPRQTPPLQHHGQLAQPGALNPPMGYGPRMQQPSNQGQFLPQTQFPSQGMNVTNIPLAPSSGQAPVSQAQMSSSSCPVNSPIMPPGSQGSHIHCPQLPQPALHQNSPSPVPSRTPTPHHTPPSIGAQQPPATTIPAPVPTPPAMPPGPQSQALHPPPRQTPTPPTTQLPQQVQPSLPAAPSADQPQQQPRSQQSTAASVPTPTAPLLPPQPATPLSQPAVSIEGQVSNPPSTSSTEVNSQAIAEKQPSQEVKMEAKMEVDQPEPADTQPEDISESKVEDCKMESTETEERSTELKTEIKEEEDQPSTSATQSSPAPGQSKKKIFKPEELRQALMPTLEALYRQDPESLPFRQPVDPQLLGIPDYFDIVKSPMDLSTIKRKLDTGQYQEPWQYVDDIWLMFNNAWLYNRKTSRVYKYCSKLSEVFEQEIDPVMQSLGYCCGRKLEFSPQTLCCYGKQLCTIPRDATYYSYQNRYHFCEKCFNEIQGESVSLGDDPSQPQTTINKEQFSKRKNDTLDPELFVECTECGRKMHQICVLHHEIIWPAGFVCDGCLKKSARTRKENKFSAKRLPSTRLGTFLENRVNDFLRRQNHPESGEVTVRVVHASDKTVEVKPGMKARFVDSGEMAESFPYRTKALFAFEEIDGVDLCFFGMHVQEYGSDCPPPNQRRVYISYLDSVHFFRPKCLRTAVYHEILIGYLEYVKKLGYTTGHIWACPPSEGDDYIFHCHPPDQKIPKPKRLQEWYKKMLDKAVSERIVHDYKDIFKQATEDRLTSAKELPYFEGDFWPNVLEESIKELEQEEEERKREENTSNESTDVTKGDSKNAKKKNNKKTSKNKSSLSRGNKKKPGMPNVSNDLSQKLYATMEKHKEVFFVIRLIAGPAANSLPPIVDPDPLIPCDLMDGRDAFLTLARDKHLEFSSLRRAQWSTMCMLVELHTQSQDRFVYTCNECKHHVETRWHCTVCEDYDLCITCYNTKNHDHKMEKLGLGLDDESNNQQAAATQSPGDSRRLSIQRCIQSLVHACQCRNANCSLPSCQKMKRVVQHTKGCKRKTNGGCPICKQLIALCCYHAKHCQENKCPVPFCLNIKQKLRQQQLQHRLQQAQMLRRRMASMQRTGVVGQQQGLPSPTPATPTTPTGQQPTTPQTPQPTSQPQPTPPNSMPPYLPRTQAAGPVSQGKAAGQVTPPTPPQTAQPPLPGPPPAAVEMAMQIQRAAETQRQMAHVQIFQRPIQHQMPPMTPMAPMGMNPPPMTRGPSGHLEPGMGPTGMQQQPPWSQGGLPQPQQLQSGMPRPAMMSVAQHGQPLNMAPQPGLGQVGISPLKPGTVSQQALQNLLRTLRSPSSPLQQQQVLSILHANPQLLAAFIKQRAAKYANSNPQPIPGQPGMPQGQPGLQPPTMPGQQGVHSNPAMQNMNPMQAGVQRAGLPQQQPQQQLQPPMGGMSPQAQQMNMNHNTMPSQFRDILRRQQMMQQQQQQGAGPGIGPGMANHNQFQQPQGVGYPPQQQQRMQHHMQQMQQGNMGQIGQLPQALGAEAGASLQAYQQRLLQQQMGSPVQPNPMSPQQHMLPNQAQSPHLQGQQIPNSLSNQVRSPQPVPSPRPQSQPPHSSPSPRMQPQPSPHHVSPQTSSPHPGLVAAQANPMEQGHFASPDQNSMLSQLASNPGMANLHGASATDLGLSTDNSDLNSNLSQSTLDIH
HIST1H1C, P16403, UniProt P16403, whole entry: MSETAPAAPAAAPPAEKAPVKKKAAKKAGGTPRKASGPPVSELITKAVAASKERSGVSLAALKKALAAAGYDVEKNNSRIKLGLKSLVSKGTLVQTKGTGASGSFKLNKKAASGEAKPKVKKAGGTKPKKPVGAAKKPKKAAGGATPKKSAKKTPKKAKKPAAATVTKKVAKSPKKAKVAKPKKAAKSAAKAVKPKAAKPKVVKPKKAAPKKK
HIST1H1D, P16402, UniProt P16402, whole entry: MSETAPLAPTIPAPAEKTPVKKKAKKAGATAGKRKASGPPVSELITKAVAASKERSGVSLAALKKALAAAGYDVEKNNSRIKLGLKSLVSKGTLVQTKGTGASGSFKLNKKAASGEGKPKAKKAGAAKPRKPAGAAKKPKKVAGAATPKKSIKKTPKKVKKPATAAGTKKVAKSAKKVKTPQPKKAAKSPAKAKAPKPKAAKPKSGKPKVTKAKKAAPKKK
INCENP, Q9NQS7, UniProt Q9NQS7, whole entry: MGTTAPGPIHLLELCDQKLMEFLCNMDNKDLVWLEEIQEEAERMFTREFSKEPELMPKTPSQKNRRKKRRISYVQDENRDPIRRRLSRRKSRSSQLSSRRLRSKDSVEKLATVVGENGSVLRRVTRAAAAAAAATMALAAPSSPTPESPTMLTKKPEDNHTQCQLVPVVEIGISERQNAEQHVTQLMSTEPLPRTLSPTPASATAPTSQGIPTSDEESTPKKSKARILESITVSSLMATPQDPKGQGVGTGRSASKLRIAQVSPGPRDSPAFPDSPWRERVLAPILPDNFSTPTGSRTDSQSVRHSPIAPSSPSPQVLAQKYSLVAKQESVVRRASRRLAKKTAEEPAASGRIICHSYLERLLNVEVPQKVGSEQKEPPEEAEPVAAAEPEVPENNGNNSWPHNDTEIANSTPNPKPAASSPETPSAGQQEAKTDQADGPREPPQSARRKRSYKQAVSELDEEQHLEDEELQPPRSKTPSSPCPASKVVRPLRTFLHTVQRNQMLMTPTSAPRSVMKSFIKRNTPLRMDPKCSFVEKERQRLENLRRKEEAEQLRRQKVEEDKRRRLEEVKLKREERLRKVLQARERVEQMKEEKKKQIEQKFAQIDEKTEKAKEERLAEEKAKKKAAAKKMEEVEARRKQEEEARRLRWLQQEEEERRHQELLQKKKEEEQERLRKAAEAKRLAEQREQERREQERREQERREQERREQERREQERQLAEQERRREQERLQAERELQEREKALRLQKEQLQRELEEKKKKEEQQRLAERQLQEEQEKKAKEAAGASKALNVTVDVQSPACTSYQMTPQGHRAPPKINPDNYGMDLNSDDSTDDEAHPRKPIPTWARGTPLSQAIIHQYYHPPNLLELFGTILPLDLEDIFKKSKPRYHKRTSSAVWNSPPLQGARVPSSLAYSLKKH
MORF4L1, Q9UBU8, UniProt Q9UBU8, whole entry: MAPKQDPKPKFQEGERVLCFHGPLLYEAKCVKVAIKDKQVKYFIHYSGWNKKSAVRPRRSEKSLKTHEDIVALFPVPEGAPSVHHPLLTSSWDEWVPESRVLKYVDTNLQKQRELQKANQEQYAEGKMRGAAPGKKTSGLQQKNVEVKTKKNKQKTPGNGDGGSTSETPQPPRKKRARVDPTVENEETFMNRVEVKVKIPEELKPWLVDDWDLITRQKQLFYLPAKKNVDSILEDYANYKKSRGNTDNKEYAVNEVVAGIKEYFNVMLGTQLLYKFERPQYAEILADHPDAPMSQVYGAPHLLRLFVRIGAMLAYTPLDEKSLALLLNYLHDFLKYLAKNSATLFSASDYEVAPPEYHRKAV
MORF4L2, Q15014, UniProt Q15014, whole entry: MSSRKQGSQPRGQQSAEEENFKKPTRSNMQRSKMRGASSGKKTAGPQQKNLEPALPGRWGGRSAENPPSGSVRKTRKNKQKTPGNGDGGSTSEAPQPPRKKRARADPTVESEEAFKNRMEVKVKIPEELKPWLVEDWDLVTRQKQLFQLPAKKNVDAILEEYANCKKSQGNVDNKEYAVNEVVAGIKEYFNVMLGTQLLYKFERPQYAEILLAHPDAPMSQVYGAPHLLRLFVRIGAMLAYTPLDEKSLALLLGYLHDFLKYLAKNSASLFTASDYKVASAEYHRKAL
PLK1, P53350, UniProt P53350, whole entry: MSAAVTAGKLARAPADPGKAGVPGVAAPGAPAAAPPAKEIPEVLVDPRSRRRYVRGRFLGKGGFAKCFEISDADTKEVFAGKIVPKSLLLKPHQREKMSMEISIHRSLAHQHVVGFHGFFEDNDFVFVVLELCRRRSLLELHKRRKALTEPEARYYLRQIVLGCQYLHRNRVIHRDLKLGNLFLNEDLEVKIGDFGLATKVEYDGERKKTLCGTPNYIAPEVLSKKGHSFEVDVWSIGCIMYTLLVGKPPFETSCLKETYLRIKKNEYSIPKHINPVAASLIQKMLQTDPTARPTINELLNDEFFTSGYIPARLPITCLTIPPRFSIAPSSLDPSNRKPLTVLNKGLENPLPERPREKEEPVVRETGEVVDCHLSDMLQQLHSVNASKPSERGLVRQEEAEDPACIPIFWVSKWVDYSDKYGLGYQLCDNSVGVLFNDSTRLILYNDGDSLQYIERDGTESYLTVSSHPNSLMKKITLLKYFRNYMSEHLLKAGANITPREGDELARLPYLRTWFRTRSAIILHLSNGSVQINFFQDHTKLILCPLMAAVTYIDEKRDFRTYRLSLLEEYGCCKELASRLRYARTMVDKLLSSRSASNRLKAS

Columns and labels:
Assay in all cases: PRISMA enrichment of interactor (LFQ) in peptide spot vs all other peptide spots (log2 fold change); higher = stronger / more specific binding of the interactor to the peptide
ALYREF, Q86V81 = molecular target: ALYREF, Q86V81
Procedure: (§1)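 PRISMA: 15-aa overlapping tiles (offset 8 aa) of 60 microproteins, plus SOS1/GLUT1 control peptides, were spot-synthesized on cellulose membranes in triplicate. Membranes were incubated with benzonase-treated HEK293T lysate, and bound proteins were identified by LC-MS/MS with LFQ. Enrichment is the log2 fold change of each protein in one spot versus all other spots. Only interactors passing the significance cutoff are listed.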

AP2A1, O95782 = molecular target: AP2A1, O95782
Procedure: as §1

AP2B1, P63010 = molecular target: AP2B1, P63010
Procedure: as §1

ATP5PO, P48047 = molecular target: ATP5PO, P48047
Procedure: as §1

BCKDK, O14874 = molecular target: BCKDK, O14874
Procedure: as §1

C11orf98, E9PRG8 = molecular target: C11orf98, E9PRG8
Procedure: as §1

C12orf65, Q9H3J6 = molecular target: C12orf65, Q9H3J6
Procedure: as §1

C19orf53, Q9UNZ5 = molecular target: C19orf53, Q9UNZ5
Procedure: as §1

CCDC137, Q6PK04 = molecular target: CCDC137, Q6PK04
Procedure: as §1

CCDC59, Q9P031 = molecular target: CCDC59, Q9P031
Procedure: as §1

CCDC77, Q9BR77 = molecular target: CCDC77, Q9BR77
Procedure: as §1

CCDC86, Q9H6F5 = molecular target: CCDC86, Q9H6F5
Procedure: as §1

CGGBP1, Q9UFW8 = molecular target: CGGBP1, Q9UFW8
Procedure: as §1

CHTOP, Q9Y3Y2 = molecular target: CHTOP, Q9Y3Y2
Procedure: as §1

CLTA, P09496 = molecular target: CLTA, P09496
Procedure: as §1

CSNK1A1, P48729 = molecular target: CSNK1A1, P48729
Procedure: as §1

CSNK1D, P48730 = molecular target: CSNK1D, P48730
Procedure: as §1

CSNK1E, P49674 = molecular target: CSNK1E, P49674
Procedure: as §1

CSRP2, Q16527 = molecular target: CSRP2, Q16527
Procedure: as §1

CXorf56, Q9H5V9 = molecular target: CXorf56, Q9H5V9
Procedure: as §1

DECR1, Q16698 = molecular target: DECR1, Q16698
Procedure: as §1

EMG1, Q92979 = molecular target: EMG1, Q92979
Procedure: as §1

EP300, Q09472 = molecular target: EP300, Q09472
Procedure: as §1

FAM32A, Q9Y421 = molecular target: FAM32A, Q9Y421
Procedure: as §1

FAM83D, Q9H4H8 = molecular target: FAM83D, Q9H4H8
Procedure: as §1

FBXO5, Q9UKT4 = molecular target: FBXO5, Q9UKT4
Procedure: as §1

GABARAPL2, P60520 = molecular target: GABARAPL2, P60520
Procedure: as §1

GAR1, Q9NY12 = molecular target: GAR1, Q9NY12
Procedure: as §1

H1FX, Q92522 = molecular target: H1FX, Q92522
Procedure: as §1

HIST1H1C, P16403 = molecular target: HIST1H1C, P16403
Procedure: as §1

HIST1H1D, P16402 = molecular target: HIST1H1D, P16402
Procedure: as §1

HIST2H2BE, Q16778 = molecular target: HIST2H2BE, Q16778
Procedure: as §1

HMGB1, P09429 = molecular target: HMGB1, P09429
Procedure: as §1

HMGB2, P26583 = molecular target: HMGB2, P26583
Procedure: as §1

INCENP, Q9NQS7 = molecular target: INCENP, Q9NQS7
Procedure: as §1

IQCB1, Q15051 = molecular target: IQCB1, Q15051
Procedure: as §1

ISG20L2, Q9H9L3 = molecular target: ISG20L2, Q9H9L3
Procedure: as §1

KRR1, Q13601 = molecular target: KRR1, Q13601
Procedure: as §1

LETMD1, Q6P1Q0 = molecular target: LETMD1, Q6P1Q0
Procedure: as §1

LYRM2, Q9NU23 = molecular target: LYRM2, Q9NU23
Procedure: as §1

MAP7D1, Q3KQU3 = molecular target: MAP7D1, Q3KQU3
Procedure: as §1

MAZ, P56270 = molecular target: MAZ, P56270
Procedure: as §1

MORF4L1, Q9UBU8 = molecular target: MORF4L1, Q9UBU8
Procedure: as §1

MORF4L2, Q15014 = molecular target: MORF4L2, Q15014
Procedure: as §1

MRPL27, Q9P0M9 = molecular target: MRPL27, Q9P0M9
Procedure: as §1

NCBP2AS2, Q69YL0 = molecular target: NCBP2AS2, Q69YL0
Procedure: as §1

NECAP2, Q9NVZ3 = molecular target: NECAP2, Q9NVZ3
Procedure: as §1

NIFK, Q9BYG3 = molecular target: NIFK, Q9BYG3
Procedure: as §1

NOL12, Q9UGY1 = molecular target: NOL12, Q9UGY1
Procedure: as §1

NOL7, Q9UMY1 = molecular target: NOL7, Q9UMY1
Procedure: as §1

PCLAF, Q15004 = molecular target: PCLAF, Q15004
Procedure: as §1

PLK1, P53350 = molecular target: PLK1, P53350
Procedure: as §1

[1] = substrate: PPIF, P30405
Procedure: as §1

PUM3, Q15397 = molecular target: PUM3, Q15397
Procedure: as §1

PYCR1, P32322 = molecular target: PYCR1, P32322
Procedure: as §1

PYCR2, Q96C36 = molecular target: PYCR2, Q96C36
Procedure: as §1

RBIS, Q8N0T1 = molecular target: RBIS, Q8N0T1
Procedure: as §1

RBMX, P38159 = molecular target: RBMX, P38159
Procedure: as §1

REPIN1, Q9BWE0 = molecular target: REPIN1, Q9BWE0
Procedure: as §1

RPGRIP1L, Q68CZ1 = molecular target: RPGRIP1L, Q68CZ1
Procedure: as §1

RPL39P5, Q59GN2 = molecular target: RPL39P5, Q59GN2
Procedure: as §1

RPS19BP1, Q86WX3 = molecular target: RPS19BP1, Q86WX3
Procedure: as §1

SERF2, P84101 = molecular target: SERF2, P84101
Procedure: as §1

SRP14, P37108 = molecular target: SRP14, P37108
Procedure: as §1

TFAM, Q00059 = molecular target: TFAM, Q00059
Procedure: as §1

TMA16, Q96EY4 = molecular target: TMA16, Q96EY4
Procedure: as §1

TXLNA, P40222 = molecular target: TXLNA, P40222
Procedure: as §1

TXLNG, Q9NUQ3 = molecular target: TXLNG, Q9NUQ3
Procedure: as §1

UTP11, Q9Y3A2 = molecular target: UTP11, Q9Y3A2
Procedure: as §1

UTP23, Q9BRU9 = molecular target: UTP23, Q9BRU9
Procedure: as §1

ZNF22, P17026 = molecular target: ZNF22, P17026
Procedure: as §1

ZNF48, Q96MX3 = molecular target: ZNF48, Q96MX3
Procedure: as §1

ZNF483, Q8TF39 = molecular target: ZNF483, Q8TF39
Procedure: as §1

ZNF512, Q96ME7 = molecular target: ZNF512, Q96ME7
Procedure: as §1

ZNF593, O00488 = molecular target: ZNF593, O00488
Procedure: as §1

hCG_2014768 = molecular target: hCG_2014768
Procedure: as §1

KDVFEELLSQWDAAL [RP11-140K17.3]
PRISMA enrichment of interactor (log2) (ALYREF, Q86V81): 7.18 ± 0.82
PRISMA enrichment of interactor (log2) (AP2A1, O95782): 5.1
PRISMA enrichment of interactor (log2) (AP2B1, P63010): 4.68
PRISMA enrichment of interactor (log2) (ATP5PO, P48047): 5.2
PRISMA enrichment of interactor (log2) (BCKDK, O14874): 4.2
PRISMA enrichment of interactor (log2) (C11orf98, E9PRG8): 5.85
PRISMA enrichment of interactor (log2) (C12orf65, Q9H3J6): 4.6
PRISMA enrichment of interactor (log2) (C19orf53, Q9UNZ5): 8.26
PRISMA enrichment of interactor (log2) (CCDC137, Q6PK04): 5.46
PRISMA enrichment of interactor (log2) (CCDC59, Q9P031): 4.66
PRISMA enrichment of interactor (log2) (CCDC77, Q9BR77): 5.97
PRISMA enrichment of interactor (log2) (CCDC86, Q9H6F5): 4.93
PRISMA enrichment of interactor (log2) (CGGBP1, Q9UFW8): 4.11
PRISMA enrichment of interactor (log2) (CHTOP, Q9Y3Y2): 7.7
PRISMA enrichment of interactor (log2) (CLTA, P09496): 5.09
PRISMA enrichment of interactor (log2) (CSNK1A1, P48729): 5.77
PRISMA enrichment of interactor (log2) (CSNK1D, P48730): 4.16
PRISMA enrichment of interactor (log2) (CSNK1E, P49674): 4.74
PRISMA enrichment of interactor (log2) (CSRP2, Q16527): 4.72
PRISMA enrichment of interactor (log2) (CXorf56, Q9H5V9): 5.66
PRISMA enrichment of interactor (log2) (DECR1, Q16698): 8.02
PRISMA enrichment of interactor (log2) (EMG1, Q92979): 6.14
PRISMA enrichment of interactor (log2) (EP300, Q09472): 4.25
PRISMA enrichment of interactor (log2) (FAM32A, Q9Y421): 4.06
PRISMA enrichment of interactor (log2) (FAM83D, Q9H4H8): 4.34
PRISMA enrichment of interactor (log2) (FBXO5, Q9UKT4): 4.6
PRISMA enrichment of interactor (log2) (GABARAPL2, P60520): 4.75
PRISMA enrichment of interactor (log2) (GAR1, Q9NY12): 4.97
PRISMA enrichment of interactor (log2) (H1FX, Q92522): 5.05
PRISMA enrichment of interactor (log2) (HIST1H1C, P16403): 5.14
PRISMA enrichment of interactor (log2) (HIST1H1D, P16402): 5.71
PRISMA enrichment of interactor (log2) (HIST2H2BE, Q16778): 5.58
PRISMA enrichment of interactor (log2) (HMGB1, P09429): 5.67
PRISMA enrichment of interactor (log2) (HMGB2, P26583): 4.57
PRISMA enrichment of interactor (log2) (INCENP, Q9NQS7): 5.69
PRISMA enrichment of interactor (log2) (IQCB1, Q15051): 5.24
PRISMA enrichment of interactor (log2) (ISG20L2, Q9H9L3): 4.02
PRISMA enrichment of interactor (log2) (KRR1, Q13601): 4.66
PRISMA enrichment of interactor (log2) (LETMD1, Q6P1Q0): 4.1
PRISMA enrichment of interactor (log2) (LYRM2, Q9NU23): 3.85
PRISMA enrichment of interactor (log2) (MAP7D1, Q3KQU3): 5.29
PRISMA enrichment of interactor (log2) (MAZ, P56270): 4.51
PRISMA enrichment of interactor (log2) (MORF4L1, Q9UBU8): 4.83
PRISMA enrichment of interactor (log2) (MORF4L2, Q15014): 6.01
PRISMA enrichment of interactor (log2) (MRPL27, Q9P0M9): 8.54
PRISMA enrichment of interactor (log2) (NCBP2AS2, Q69YL0): 3.75
PRISMA enrichment of interactor (log2) (NECAP2, Q9NVZ3): 4.39
PRISMA enrichment of interactor (log2) (NIFK, Q9BYG3): 5.56
PRISMA enrichment of interactor (log2) (NOL12, Q9UGY1): 5.39
PRISMA enrichment of interactor (log2) (NOL7, Q9UMY1): 6
PRISMA enrichment of interactor (log2) (PCLAF, Q15004): 4.54
PRISMA enrichment of interactor (log2) (PLK1, P53350): 4.76
PRISMA enrichment of interactor (log2) [1]: 5.16
PRISMA enrichment of interactor (log2) (PUM3, Q15397): 4.79
PRISMA enrichment of interactor (log2) (PYCR1, P32322): 5.73
PRISMA enrichment of interactor (log2) (PYCR2, Q96C36): 4.7
PRISMA enrichment of interactor (log2) (RBIS, Q8N0T1): 4.48
PRISMA enrichment of interactor (log2) (RBMX, P38159): 4.74
PRISMA enrichment of interactor (log2) (REPIN1, Q9BWE0): 4.56
PRISMA enrichment of interactor (log2) (RPGRIP1L, Q68CZ1): 5.39
PRISMA enrichment of interactor (log2) (RPL39P5, Q59GN2): 4.75
PRISMA enrichment of interactor (log2) (RPS19BP1, Q86WX3): 5.39
PRISMA enrichment of interactor (log2) (SERF2, P84101): 6.42
PRISMA enrichment of interactor (log2) (SRP14, P37108): 5.38
PRISMA enrichment of interactor (log2) (TFAM, Q00059): 4.77
PRISMA enrichment of interactor (log2) (TMA16, Q96EY4): 5.09
PRISMA enrichment of interactor (log2) (TXLNA, P40222): 6.27
PRISMA enrichment of interactor (log2) (TXLNG, Q9NUQ3): 6.18
PRISMA enrichment of interactor (log2) (UTP11, Q9Y3A2): 5.32
PRISMA enrichment of interactor (log2) (UTP23, Q9BRU9): 5.72
PRISMA enrichment of interactor (log2) (ZNF22, P17026): 4.7
PRISMA enrichment of interactor (log2) (ZNF48, Q96MX3): 3.92
PRISMA enrichment of interactor (log2) (ZNF483, Q8TF39): 5.03
PRISMA enrichment of interactor (log2) (ZNF512, Q96ME7): 4.73
PRISMA enrichment of interactor (log2) (ZNF593, O00488): 5.05
PRISMA enrichment of interactor (log2) (hCG_2014768): 4.86
